{"source": "patent US9383374B2", "about": "“Methods to determine susceptibility to treatment with leukotriene modifiers” (NATIONAL JEWISH HEALTH, priority 2008, dated 2016)", "system": "children with physician-diagnosed asthma", "assay": "Randomized placebo-controlled study of daily montelukast on LTE4-related albuterol usage in schoolchildren with asthma", "type": "in vivo, human", "from_the_text": "Twenty-eight children, aged 6 to 15, who had physician-diagnosed asthma were followed over a 5-month period (Nov. 15, 2005 to Apr. 15, 2006). Children were excluded from the study if they were already receiving montelukast. Many of the children are classified as urban poor. The children attended the same school.\nAfter an initial two and a half month period (baseline interval), children were randomized to receive daily montelukast (montelukast group) or placebo (placebo group) for the final two and a half months of the study (treatment interval). Study medication and placebo were administered in a single-blinded fashion by school nurses or study personnel on school days and by parents (who were blinded) on non-school-days. Children were otherwise followed by their regular physicians who were free to adjust medications as needed (these medication changes were recorded and controlled for in the statistical analysis).\nEach child was given a Doser (Meditrak, Hudson, M S) for use at school throughout the 5-month period. The Doser is an electronic counter that records the total number of (albuterol) activations in each 24-hour period. At study initiation, parents completed a questionnaire describing baseline demographic and asthma severity characteristics. School nurses recorded all other medication changes during the study.\nSixteen urine samples were collected from each child on 8 consecutive schooldays during the baseline interval and 8 consecutive schooldays during the treatment interval. Urine was collected at approximately the same time each day (10:00 AM to 12:00 PM). Collection was staggered in groups of 10 children so that urine monitoring occurred daily throughout the 5 months of the study. […]\nThe interquartile range (IQR) for LTE4 was used to standardize slope estimates; this statistic was determined by first calculating the IQR for each subject, and then taking the median across subjects. […]", "note": "At least one compound was matched to its structure with a doubt left.", "data": [{"smiles": "CC(C)(O)c1ccccc1CC[C@@H](SCC1(CC(=O)O)CC1)c1cccc(/C=C/c2ccc3ccc(Cl)cc3n2)c1", "note": "[Montelukast, montelukast]", "values": [{"measurement": "Declines in LTE4-related albuterol usage after montelukast treatment", "setting": "children in the 3rd LTE4 to FENO quartile, not the 1st quartile (p=0.89)", "value": "significant"}, {"measurement": "Declines in LTE4-related albuterol usage after montelukast treatment", "setting": "children with higher cotinine (p=0.01), not the lower cotinine quartile (p=0.18)", "value": "significant"}, {"measurement": "declines in LTE4-related albuterol usage with montelukast treatment", "setting": "girls versus boys (p=0.01 girls, p=0.21 boys, p=0.07 interaction)", "value": "tended to be greater in girls than boys"}]}]}
